Source: PubChem BioAssay AID504847 (National Center for Advancing Translational Sciences (NCATS), 2011)
In all, about 400,000 compounds went through this assay and about 3,700 (0.93%) were called active. The shares of active, inactive and inconclusive entries below differ from those in the screen. Calls follow the shape of the dose curve; as a rule, active = well fitted inhibition curve with a large enough effect; inconclusive = small, poorly fitted or top-dose-only effect, or another doubt; inactive = no such curve, though single readings can be large or run the other way. Potencies of inconclusive entries are doubtful fits and often do not repeat.

Amino acid sequences for entries named in this document (tags omitted). A change or cut given only in a name is not applied to a line headed by its entry.
UniProt P11473: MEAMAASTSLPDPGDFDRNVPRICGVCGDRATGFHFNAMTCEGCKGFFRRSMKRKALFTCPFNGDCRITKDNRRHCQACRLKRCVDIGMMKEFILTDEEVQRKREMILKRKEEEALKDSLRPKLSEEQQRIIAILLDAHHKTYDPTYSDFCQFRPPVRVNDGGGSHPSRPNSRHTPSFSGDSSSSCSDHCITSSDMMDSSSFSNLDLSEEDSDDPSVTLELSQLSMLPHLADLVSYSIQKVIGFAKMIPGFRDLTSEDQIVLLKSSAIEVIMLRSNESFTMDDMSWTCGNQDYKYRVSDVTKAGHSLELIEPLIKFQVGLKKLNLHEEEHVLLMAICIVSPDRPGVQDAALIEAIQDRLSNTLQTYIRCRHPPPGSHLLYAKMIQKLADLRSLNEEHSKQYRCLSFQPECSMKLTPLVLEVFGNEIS

What follows are compounds tested against Vitamin D3 receptor (Homo sapiens) (UniProt P11473) (assay: Inhibitors of the vitamin D receptor (VDR): qHTS). Conditions: VDR-SRC2-3 peptide fluorescence polarization, 2 h; max response, negative = inhibition: active compounds read low.
In short: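 Measured by FP: displacement of SRC2-3 coactivator peptide from VDR by library compounds, following a two-hour ambient incubation.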
% is scaled to controls: 0 for no effect and ±100 for the full control effect; potency is read from the fitted curve at half-maximal effect.

Row | Structure (SMILES) | Potency | max response, negative = inhibition
1 | Oc1cccc(O)c1O | active: 79.4 µM | 
2 | COc1ccc(NS(=O)(=O)c2ccc(F)c(Cl)c2)cn1 | active: 79.4 µM | 
3 | CN(C)c1ccc(Nc2ccc([N+](=O)[O-])cn2)cc1 |  | inactive: 2.46%
4 | COc1ccccc1-c1cc(C(F)(F)F)nc(S(=O)(=O)CCCC(=O)NCc2ccc(F)cc2)n1 | inconclusive: 11.2 µM [inhibitor, full curve] | 
5 | Cc1cc(C)n2nc(SCc3cccc(S(=O)(=O)N(C)C)c3)nc2n1 | inconclusive: 79.4 µM [inhibitor, single point] | 
6 | S=C(Nc1ccc(Br)cc1Cl)Nn1cnnc1 | inconclusive: 79.4 µM [inhibitor, partial curve, poor fit] | 
7 | CNC(=O)c1c(NC(=O)CCS(=O)(=O)c2ccc(C)cc2)sc2c1CCN(C(=O)OC)C2 | inconclusive: 89.1 µM [inhibitor, single point] | 
8 | CCOC(=O)c1c(C)[nH]c(C(=O)OCC(=O)c2ccc3c(c2)NC(=O)CO3)c1C | inconclusive: 79.4 µM [inhibitor, single point] | 
9 | CC(=O)Nc1ccc(SCC(=O)NCC2(N3CCCCC3)CCCCC2)cc1 | inconclusive: 79.4 µM [inhibitor, single point] | 
10 | CN(CC(=O)Nc1c(Cl)cccc1Cl)C(=O)Cc1ccc2c(c1)CCC2 | inconclusive: 79.4 µM [inhibitor, single point] | 
11 | COc1ccc(SC[C@H](C)CN2CC[C@H](C(C)(C)C)CCC2=O)cc1 | inconclusive: 70.8 µM [inhibitor, single point] | 
12 | COc1cc(CC(=O)NC(c2ccccc2)c2ccccc2)cc(OC)c1OC | inconclusive: 79.4 µM [inhibitor, single point] | 
13 | COc1ccc(/C=N/NC(=O)c2nn(-c3ccc(Cl)cc3)c(=O)c3c(N)scc23)cc1 | inconclusive: 89.1 µM [inhibitor, single point] | 
14 | CCC(=O)Oc1c(Sc2ccc(C)cc2)c(C)nn1-c1ccccc1 | active: 79.4 µM | 
15 | O=C(N/N=C/c1ccc(-c2ccccc2[N+](=O)[O-])o1)c1cccnc1 | inconclusive: 56.2 µM [inhibitor, partial curve, poor fit] | 
16 | CC(C)(C)c1cc(/C=C(\C#N)C(N)=S)cc(C(C)(C)C)c1O | active: 35.5 µM | 
17 | CC(=O)Nc1ccc(S(=O)(=O)N2CCN(S(=O)(=O)N3CCC(C)CC3)CC2)cc1 |  | inactive: -4.19%
18 | CC(C)C(Cl)=NOC(=O)Nc1ccc(S(N)(=O)=O)cc1 | inconclusive: 89.1 µM [inhibitor, single point] | 
19 | CCCN1C(=O)c2ccccc2NC1c1ccc(OC)c(COc2cccc(OC)c2)c1 (stereo not given) |  | inactive: -11.1%
20 | [O-]c1n[n+](-c2ccc(Cl)cc2)cc2ccccc12 | inconclusive: 56.2 µM [inhibitor, partial curve, poor fit] | 
21 | COc1ccc(C2N(c3cc(C)on3)C(=O)C3CCCN32)cc1OC (stereo not given) |  | inactive: 1.61%
22 | O=C1CC(N(O)C2CC(=O)N(Cc3ccccc3)C2=O)C(=O)N1Cc1ccccc1 (stereo not given) | inconclusive: 39.8 µM [inhibitor, partial curve, poor fit] | 
23 | COc1ccc(/C=C/C(=O)c2c(OC)cc(O)cc2OC)cc1 | inconclusive: 44.7 µM [inhibitor, single point] | 
24 | Cc1cc(O)c(C(c2ccccc2)N2CCN(c3ccc(F)cc3)CC2)c(=O)n1Cc1ccco1 (stereo not given) |  | inactive: -6.87%

Three entries drawn at random from the list so far, as already listed:
Row | Structure (SMILES) | Potency | max response, negative = inhibition
19 | CCCN1C(=O)c2ccccc2NC1c1ccc(OC)c(COc2cccc(OC)c2)c1 (stereo not given) |  | inactive: -11.1%
18 | CC(C)C(Cl)=NOC(=O)Nc1ccc(S(N)(=O)=O)cc1 | inconclusive: 89.1 µM [inhibitor, single point] | 
17 | CC(=O)Nc1ccc(S(=O)(=O)N2CCN(S(=O)(=O)N3CCC(C)CC3)CC2)cc1 |  | inactive: -4.19%

(continued)

Row | Structure (SMILES) | Potency | max response, negative = inhibition
25 | O=c1c(-c2ccc(F)cc2)nc2cnc(Nc3ccccc3)nc2n1Cc1cccs1 |  | inactive: 5.97%
26 | Cc1cc(N/N=C/c2ccccc2Br)nc2ccccc12 |  | inactive: -5%
27 | Cc1ccc(-n2c(CCC(=O)O)ccc2-c2cccs2)cc1Cl | inconclusive: 89.1 µM [inhibitor, single point] | 
28 | CCc1ccc(C(=O)CC2(O)C(=O)N(Cc3ccc(C)cc3)c3ccccc32)cc1 (stereo not given) | inconclusive: 15.8 µM [inhibitor, full curve, poor fit] | 
29 | Cc1cc(C(=O)CCl)c(C)n1-c1c(C)n(C)n(-c2ccccc2)c1=O |  | inactive: 8.64%
30 | O=C(O)CCc1nn2c3ccccc3n(Cc3ccccc3F)c2nc1=O | inconclusive: 89.1 µM [inhibitor, single point] | 
31 | COc1ccc(C(=O)NCC2(c3ccccc3)CCOCC2)cc1[N+](=O)[O-] | inconclusive: 50.1 µM [inhibitor, partial curve, poor fit] | 
32 | O=C(Cn1nc(Cc2cccnc2)c2ccccc2c1=O)Nc1cccnc1Cl | inconclusive: 89.1 µM [inhibitor, single point] | 
33 | C=CCC(NCc1ccco1)c1ccc(OC)cc1 (stereo not given) | inconclusive: 79.4 µM [inhibitor, partial curve] | 
34 | O=C(Cn1nc(C(=O)O)c2ccccc2c1=O)c1cc(F)ccc1F | inconclusive: 31.6 µM [inhibitor, single point] | 
35 | Cc1ccc(-n2c(SCC(N)=O)nnc2-c2ccc(S(=O)(=O)N3CCCCC3)cc2)c(C)c1 |  | inactive: -5.78%
36 | CCn1c(=NC(=O)c2ccc(S(=O)(=O)N(C)C)cc2)sc2cccc(OC)c21 |  | inactive: -3.98%
37 | COc1ccc(S(=O)(=O)CCC(=O)Nc2c(C)cccc2C)cc1 | inconclusive: 89.1 µM [inhibitor, single point] | 
38 | COc1ccccc1C(=O)NCCC(=O)NCC1CCCCC1 | inconclusive: 79.4 µM [inhibitor, single point] | 
39 | Cn1nnnc1SCC1=C(C(=O)O)N2C(=O)C(NC(=O)C3CC3c3ccccc3)C2SC1 (stereo not given) | inconclusive: 89.1 µM [inhibitor, partial curve, poor fit] | 
40 | Cc1ccc(NCC(=O)N/N=C/c2cccn2C)cc1 |  | inactive: -3.55%
41 | O=C1C(=C2CCCCC2)SC(=S)N1Cc1ccco1 | inconclusive: 89.1 µM [inhibitor, single point] | 
42 | CCN(CC)CCCN=Cc1c(O)n(-c2ccccc2C)c(=O)c2ccccc12 |  | inactive: 7.79%
43 | COc1ccc(-c2csc(NC(=O)C3CC(=O)N(c4ccc5c(c4)OCCO5)C3)n2)cc1 (stereo not given) | inconclusive: 89.1 µM [inhibitor, single point] | 
44 | CCC1CCc2[nH]nc(C(=O)O)c2C1 (stereo not given) |  | inactive: 2.91%
45 | N#Cc1cccc(-c2cncnc2-n2ccnc2)c1 | inconclusive: 89.1 µM [inhibitor, single point] | 
46 | C=CCNC(=S)N/N=C(\C)c1ccc(OC)cc1 |  | inactive: -2.65%
47 | COc1ccc(CC(=O)NC(C)c2nnc(SCCOc3ccc(OC)cc3)n2C)cc1 (stereo not given) |  | inactive: 11.1%
48 | NS(=O)(=O)c1cccc(NC(=O)Cc2ccc(Cl)c(Cl)c2)c1 | inconclusive: 89.1 µM [inhibitor, single point] | 

Row | Structure (SMILES) | Potency | max response, negative = inhibition
49 | COc1cc2nc(C)sc2cc1SC | inconclusive: 39.8 µM [inhibitor, single point] | 
50 | Cc1cc(C(C)(C)C)cc(S(=O)(=O)Nc2ccc(O)c(C(=O)O)c2)c1C | inconclusive: 79.4 µM [inhibitor, partial curve, poor fit] | 
51 | COC(=O)C1=C(C(=O)OC)C(c2cc(Cl)ccc2O)c2sc(=O)[nH]c2S1 (stereo not given) | inconclusive: 89.1 µM [inhibitor, partial curve] | 
52 | COc1ccc(-c2cc(C(=O)NC(Cc3c[nH]c4ccccc34)C(=O)O)c(C)o2)cc1OC (stereo not given) | active: 44.7 µM | 
53 | CC(Sc1nnnn1C1CCCCC1)C(=O)O (stereo not given) | active: 79.4 µM | 
54 | COc1ccc2[nH]c(=O)c(CNc3ccccc3C)cc2c1 | inconclusive: 56.2 µM [inhibitor, partial curve, poor fit] | 
55 | CCCCN(CC)c1nc(N)c2c(N)nc(OCC)cc2c1C#N | inconclusive: 100 µM [inhibitor, single point] | 
56 | CCOC(=O)c1cnc(SCCc2ccccc2)nc1N |  | inactive: -3.76%
57 | Cc1cc(NC(=S)N(CCCN2CCN(C)CC2)Cc2ccco2)ccc1Cl | inconclusive: 79.4 µM [inhibitor, single point] | 
58 | CCC1(c2ccccc2)NC(=O)N(CC(=O)Nc2cc(Cl)ccc2N2CCN(C)CC2)C1=O (stereo not given) |  | inactive: 6.92%
59 | O=C(c1cc2sccc2n1Cc1ccc(F)cc1)N1CCCc2ccccc21 |  | inactive: 22.7%
60 | CN(Cc1ccco1)c1cc(-c2cccnc2)ncn1 | inconclusive: 44.7 µM [inhibitor, partial curve] | 
61 | CN(C)/C=C/C(=O)/C=C/c1cn(-c2ncc(C(F)(F)F)cc2Cl)c2ccccc12 |  | inactive: -0.317%
62 | Cc1cc(C2C(C#N)=C(N)SC(N)=C2C#N)c(C)s1 | inconclusive: 70.8 µM [inhibitor, partial curve, poor fit] | 
63 | C=CCNc1ncnc2c1cnn2-c1ccc(Cl)cc1 | inconclusive: 79.4 µM [inhibitor, partial curve, poor fit] | 
64 | COc1ccc(-c2cn3cc(C)ccc3n2)cc1F | inconclusive: 63.1 µM [inhibitor, partial curve, poor fit] | 
65 | Cc1sc2ncnc(NCCc3ccc(S(N)(=O)=O)cc3)c2c1C |  | inactive: 4.03%
66 | Cc1cccc(C(=O)Nc2ccc(N3CC=C(c4ccccc4C)CC3)c(C(=O)O)c2)c1 |  | inactive: 5.65%
67 | CCOc1ccccc1C(=O)Nc1cccc2cccnc12 | inconclusive: 7.94 µM [inhibitor, partial curve, poor fit] | 
68 | CCCc1cc(=O)oc2cc(OCC(=O)NCCc3c[nH]c4ccccc34)ccc12 |  | inactive: -21.3%
69 | Fc1ccc(-c2csc(=S)[nH]2)cc1 | active: 79.4 µM | 
70 | O=C(O)Cc1ccc(C(=O)CSc2ccccc2)s1 | inconclusive: 89.1 µM [inhibitor, partial curve, poor fit] | 
